From paper PMC7662524, “Determination and Dissection of DNA-Binding Specificity for the Thermus thermophilus HB8 Transcriptional Regulator TTHB099”
pKd: −log10 of the molar value. Construct, isoform or probe ends are uncertain for at least one entry. Tags and fusion partners may be left off the protein sequences shown.

Biological target: T1, TTHB099 (Thermus thermophilus HB8) (UniProt Q53W63)
T1 sequence (looked up, limits assumed): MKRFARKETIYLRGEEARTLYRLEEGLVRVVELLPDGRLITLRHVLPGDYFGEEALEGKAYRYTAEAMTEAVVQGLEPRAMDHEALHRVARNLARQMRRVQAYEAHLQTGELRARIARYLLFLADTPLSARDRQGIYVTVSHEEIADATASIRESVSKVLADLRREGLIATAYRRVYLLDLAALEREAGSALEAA
Test: BLI
Details: pH and temperature not given (as previously described), BLI 17, 50, 150, 450 nM TTHB099 on streptavidin sensors, recombinant protein, label: 5' biotin (Bio_ST2R strand)

Sequence: AGGAATTCGTGCAGAGGTGAATTGTATTCTAGAATACATTACCATCCCTCCAGAAGCTTG (double strand) [ST2_099 consensus (wt), BLI probe]
- pKd (100 nM 3',5'-cAMP, 200 nM TTHB099): 8.65
- pKd (no cAMP): 8.65
